Data from PubChem BioAssay AID344 (DTP/NCI, 2004).
The list does not hold the whole screen: it gathers some chemical classes. Other doses and runs of a compound may be missing. T/C is the treated group as % of the vehicle group. Where survival is the endpoint, the PubChem record calls one and a half times the control and up active, and a quarter to a half above the control has no call in these data; cut-offs in other NCI protocols can differ. Some entries show no survivor count and are marked so; the dose need not have been tolerated. Schedules are NCI's codes, taken here to give the interval after Q, in days (D) or hours (H), and the number of doses after X. Some doses were run more than once; the values are given in rising order. Some schedules carry Z or #; the key to these is not given.

Test system: mice, LPC-1 plasma cell tumor ip, median survival T/C
Assay: NCI In Vivo Anticancer Drug Screen. Data for tumor model Lieberman Plasma Cell No. 1 (LPC-1) (intraperitoneal) in unknown mice
Settings: T/C endpoint: median survival time, vehicle: carboxymethylcellulose (CMC), higher T/C = longer survival
Experimental: The antitumor activity of compounds was measured in mice bearing transplantable tumors. Survival or tumor size were measured and the results are expressed as the measurement made in the treated group (T) divided by the measurement made in the vehicle treated control group (C). The tumor model used in this assay is Lieberman Plasma Cell No. 1 (LPC-1) (intraperitoneal) in unknown mice

## ClCCN(CCCl)c1ccccc1
dose: 1.6 mg/kg/injection, schedule: Q## X040 (oral)
  T/C: 105 % of control [survivor count not shown]
dose: 1.8 mg/kg/injection, schedule: Q01DX028 (sc)
  T/C: 110 % of control [survivor count not shown]
dose: 3.0 mg/kg/injection, schedule: Q01DX028 (sc)
  T/C: 118 % of control [survivor count not shown]
dose: 3.12 mg/kg/injection, schedule: Q01DX024 (oral)
  T/C: 97 % of control [survivor count not shown]
dose: 3.13 mg/kg/injection, schedule: Q01DX028 (sc)
  T/C: 152 % of control [survivor count not shown]
dose: 3.2 mg/kg/injection, schedule: Q03HX064 (oral)
  T/C: 205 % of control [survivor count not shown]
dose: 5.0 mg/kg/injection, schedule: Q01DX028 (sc)
  T/C: 140 % of control [survivor count not shown]
dose: 6.25 mg/kg/injection, schedule: Q01DX005 (oral)
  T/C: 128 % of control [survivor count not shown]
dose: 6.25 mg/kg/injection, schedule: Q01DX024 (ip)
  T/C: 529 % of control [survivor count not shown]
dose: 6.25 mg/kg/injection, schedule: Q01DX024 (oral)
  T/C: 102 % of control [survivor count not shown]
dose: 6.25 mg/kg/injection, schedule: Q01DX028 (oral)
  T/C: 113 % of control [survivor count not shown]
dose: 6.25 mg/kg/injection, schedule: Q01DX028 (sc)
  T/C: 121 % of control [survivor count not shown]
dose: 6.25 mg/kg/injection, schedule: Q02DX014 (sc)
  T/C: 126 % of control [survivor count not shown]
dose: 6.25 mg/kg/injection, schedule: Q## X010 (oral)
  T/C: 126 % of control [survivor count not shown]
dose: 6.25 mg/kg/injection, schedule: Q## X015 (oral)
  T/C: 159 % of control [survivor count not shown]
dose: 6.3 mg/kg/injection, schedule: Q01DX028 (oral)
  T/C: 142 [survivor count not shown] and 186 % of control [survivor count not shown]
dose: 6.3 mg/kg/injection, schedule: Q03HX064 (oral)
  T/C: 402 % of control [survivor count not shown]
dose: 6.3 mg/kg/injection, schedule: Q## X008 (oral)
  T/C: 107 % of control [survivor count not shown]
dose: 6.3 mg/kg/injection, schedule: Q## X040 (oral)
  T/C: 132 % of control [survivor count not shown]
dose: 8.4 mg/kg/injection, schedule: Q01DX028 (sc)
  T/C: 164 [survivor count not shown] and 171 % of control [survivor count not shown]
dose: 12.5 mg/kg/injection, schedule: Q01DX001 (sc)
  T/C: 104 [survivor count not shown] and 110 % of control [survivor count not shown]
dose: 12.5 mg/kg/injection, schedule: Q01DX005 (ip)
  T/C: 208 % of control [survivor count not shown]
dose: 12.5 mg/kg/injection, schedule: Q01DX005 (oral)
  T/C: 240 [survivor count not shown] and 347 % of control [survivor count not shown]
dose: 12.5 mg/kg/injection, schedule: Q01DX015 (oral)
  T/C: 108 % of control [survivor count not shown]
dose: 12.5 mg/kg/injection, schedule: Q01DX024 (ip)
  T/C: 529 % of control [survivor count not shown]
dose: 12.5 mg/kg/injection, schedule: Q01DX024 (oral)
  T/C: 97 % of control [survivor count not shown]
dose: 12.5 mg/kg/injection, schedule: Q01DX028 (oral)
  T/C: 115 [survivor count not shown], 125 [survivor count not shown], 133 % of control [survivor count not shown]
dose: 12.5 mg/kg/injection, schedule: Q01DX028 (sc)
  T/C: 168 % of control [survivor count not shown]
dose: 12.5 mg/kg/injection, schedule: Q02DX014 (sc)
  T/C: 165 % of control [survivor count not shown]
dose: 12.5 mg/kg/injection, schedule: Q03HX064 (oral)
  T/C: 167 % of control [survivor count not shown]
dose: 12.5 mg/kg/injection, schedule: Q07DX004 (sc)
  T/C: 118 % of control [survivor count not shown]
dose: 12.5 mg/kg/injection, schedule: Q## X008 (oral)
  T/C: 125 % of control [survivor count not shown]
dose: 12.5 mg/kg/injection, schedule: Q## X010 (ip)
  T/C: 529 % of control [survivor count not shown]
dose: 12.5 mg/kg/injection, schedule: Q## X010 (oral)
  T/C: 428 % of control [survivor count not shown]
dose: 12.5 mg/kg/injection, schedule: Q## X015 (ip)
  T/C: 529 % of control [survivor count not shown]
dose: 12.5 mg/kg/injection, schedule: Q## X015 (oral)
  T/C: 380 % of control [survivor count not shown]
dose: 12.5 mg/kg/injection, schedule: Q## X040 (oral)
  T/C: 105 % of control [survivor count not shown]
dose: 12.51 mg/kg/injection, schedule: Q07DX004 (sc)
  T/C: 110 % of control [survivor count not shown]
dose: 14.0 mg/kg/injection, schedule: Q01DX028 (sc)
  T/C: 134 [survivor count not shown] and 145 % of control [survivor count not shown]
dose: 23.0 mg/kg/injection, schedule: Q01DX028 (sc)
  T/C: 157 [survivor count not shown] and 170 % of control [survivor count not shown]
dose: 25.0 mg/kg/injection, schedule: Q01DX001 (oral)
  T/C: 428 % of control [survivor count not shown]
dose: 25.0 mg/kg/injection, schedule: Q01DX001 (sc)
  T/C: 126 % of control [survivor count not shown]
dose: 25.0 mg/kg/injection, schedule: Q01DX005 (ip)
  T/C: 182 % of control [survivor count not shown]
dose: 25.0 mg/kg/injection, schedule: Q01DX005 (oral)
  T/C: 97 [survivor count not shown], 309 [survivor count not shown], 450 [survivor count not shown], 500 % of control [survivor count not shown]
dose: 25.0 mg/kg/injection, schedule: Q01DX015 (oral)
  T/C: 94 % of control [survivor count not shown]
dose: 25.0 mg/kg/injection, schedule: Q01DX024 (ip)
  T/C: 126 % of control [survivor count not shown]
dose: 25.0 mg/kg/injection, schedule: Q01DX024 (oral)
  T/C: 100 % of control [survivor count not shown]
dose: 25.0 mg/kg/injection, schedule: Q01DX028 (oral)
  T/C: 90 [survivor count not shown], 127 [survivor count not shown], 150 % of control [survivor count not shown]
dose: 25.0 mg/kg/injection, schedule: Q01DX028 (sc)
  T/C: 131 % of control [survivor count not shown]
dose: 25.0 mg/kg/injection, schedule: Q02DX014 (sc)
  T/C: 210 % of control [survivor count not shown]
dose: 25.0 mg/kg/injection, schedule: Q03HX064 (oral)
  T/C: 127 % of control [survivor count not shown]
dose: 25.0 mg/kg/injection, schedule: Q04DX008 (oral)
  T/C: 100 % of control [survivor count not shown]
dose: 25.0 mg/kg/injection, schedule: Q07DX004 (sc)
  T/C: 143 % of control [survivor count not shown]
dose: 25.0 mg/kg/injection, schedule: Q14DX002 (sc)
  T/C: 109 % of control [survivor count not shown]
dose: 25.0 mg/kg/injection, schedule: Q## X008 (oral)
  T/C: 175 % of control [survivor count not shown]
dose: 25.0 mg/kg/injection, schedule: Q## X010 (ip)
  T/C: 144 % of control [survivor count not shown]
dose: 25.0 mg/kg/injection, schedule: Q## X010 (oral)
  T/C: 105 [survivor count not shown] and 428 % of control [survivor count not shown]
dose: 25.0 mg/kg/injection, schedule: Q## X015 (ip)
  T/C: 100 % of control [survivor count not shown]
